Reference: article PMC9021192
No constants are given. Whether binding was seen depends on the method and setting. Binding seen in cells or lysates may run through a third protein. Some results given as binding are weak or reduced against the parent protein; the word gives no strength.

Molecular target: T1, p54nrb (nuclear RNA-binding protein 54 kDa) (human (endogenous in HeLa)) (UniProt Q15233)
T1 sequence: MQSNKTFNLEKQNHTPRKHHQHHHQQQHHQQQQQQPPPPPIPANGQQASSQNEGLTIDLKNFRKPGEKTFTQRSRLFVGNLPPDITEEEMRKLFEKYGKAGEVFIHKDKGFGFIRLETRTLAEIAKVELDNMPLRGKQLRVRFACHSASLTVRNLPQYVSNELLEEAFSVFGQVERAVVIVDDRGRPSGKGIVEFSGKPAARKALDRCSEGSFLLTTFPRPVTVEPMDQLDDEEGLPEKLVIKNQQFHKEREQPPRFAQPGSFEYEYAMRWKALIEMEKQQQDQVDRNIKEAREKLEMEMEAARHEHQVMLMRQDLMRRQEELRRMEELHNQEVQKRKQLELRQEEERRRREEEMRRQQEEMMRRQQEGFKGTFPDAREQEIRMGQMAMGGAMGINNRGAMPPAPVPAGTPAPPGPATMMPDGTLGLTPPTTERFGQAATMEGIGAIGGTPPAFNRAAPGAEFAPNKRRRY
Test: co-IP; endogenous p54nrb immunoprecipitated from 1 mg HeLa lysate (1% Triton X-100 lysis buffer) with 1 µg antibody overnight at 4 °C and protein-G sepharose beads; same amount and species of IgG as control; immunoblot of caspase-2

- binding: binds
B1: caspase-2 (enzyme, UniProt P42575 1-452)
chain: MAAPSAGSWSTFQHKELMAADRGRRILGVCGMHPHHQETLKKNRVVLAKQLLLSELLEHLLEKDIITLEMRELIQAKVGSFSQNVELLNLLPKRGPQAFDAFCEALRETKQGHLEDMLLTTLSGLQHVLPPLSCDYDLSLPFPVCESCPLYKKLRLSTDTVEHSLDNKDGPVCLQVKPCTPEFYQTHFQLAYRLQSRPRGLALVLSNVHFTGEKELEFRSGGDVDHSTLVTLFKLLGYDVHVLCDQTAQEMQEKLQNFAQLPAHRVTDSCIVALLSHGVEGAIYGVDGKLLQLQEVFQLFDNANCPSLQNKPKMFFIQACRGDETDRGVDQQDGKNHAGSPGCEESDAGKEKLPKMRLPTRSDMICGYACLKGTAAMRNTKRGSWYIEALAQVFSERACDMHVADMLVKVNALIKDREGYAPGTEFHRCKEMSEYCSTLCRHLYLFPGHPPT
